No constants are given. Whether binding was seen depends on the method and setting. In cells and extracts the contact can be indirect. Binding can be weak; no strength is given.
B1: GASP-1 truncated mutant 380–1395 (domain or fragment, UniProt Q5JY77 380-1395)
chain: MTKEEAKTKARARAKQEARSEEEALIGTWFWATDESSMADEASIESSLQVEDESIIGSWFWTEEEASMGTGASSKSRPRTDGERIGDSLFGAREKTSMKTGAEATSESILAADDEQVIIGSWFWAGEEVNQEAEEETIFGSWFWVIDAASVESGVGVSCESRTRSEEEEVIGPWFWSGEQVDIEAGIGEEARPGAEEETIFGSWFWAENQTYMDCRAETSCDTMQGAEEEEPIIGSWFWTRVEACVEGDVNSKSSLEDKEEAMIPCFGAKEEVSMKHGTGVRCRFMAGAEETNNKSCFWAEKEPCMYPAGGGSWKSRPEEEEDIVNSWFWSRKYTKPEAIIGSWLWATEESNIDGTGEKAKLLTEEETIINSWFWKEDEAISEATDREESRPEAEEGDIIGSWFWAGEEDRLEPAAETREEDRLAAEKEGIVGSWFGAREETIRREAGSCSKSSPKAEEEEVIIGSWFWEEEASPEAVAGVGFESKPGTEEEEITVGSWFWPEEEASIQAGSQAVEEMESETEEETIFGSWFWDGKEVSEEAGPCCVSKPEDDEEMIVESWFWSRDKAIKETGTVATCESKPENEEGAIVGSWFEAEDEVDNRTDNGSNCGSRTLADEDEAIVGSWFWAGDEAHFESNPSPVFRAICRSTCSVEQEPDPSRRPQSWEEVTVQFKPGPWGRVGFPSISPFRFPKEAASLFCEMFGGKPRNMVLSPEGEDQESLLQPDQPSPEFPFQYDPSYRSVQEIREHLRAKESTEPESSSCNCIQCELKIGSEEFEELLLLMEKIRDPFIHEISKIAMGMRSASQFTRDFIRDSGVVSLIETLLNYPSSRVRTSFLENMIRMAPPYPNLNIIQTYICKVCEETLAYSVDSPEQLSGIRMIRHLTTTTDYHTLVANYMSGFLSLLATGNAKTRFHVLKMLLNLSENLFMTKELLSAEAVSEFIGLFNREETNDNIQIVLAIFENIGNNIKKETVFSDDDFNIEPLISAFHKVEKFAKELQGKTDNQNDPEGDQEN
modifications: [35S]-methionine labelled
B2: central domain of GASP-1 (AA 380 to 1073) expressed in HEK293 cells (domain or fragment, UniProt Q5JY77 380-1073)
chain: MTKEEAKTKARARAKQEARSEEEALIGTWFWATDESSMADEASIESSLQVEDESIIGSWFWTEEEASMGTGASSKSRPRTDGERIGDSLFGAREKTSMKTGAEATSESILAADDEQVIIGSWFWAGEEVNQEAEEETIFGSWFWVIDAASVESGVGVSCESRTRSEEEEVIGPWFWSGEQVDIEAGIGEEARPGAEEETIFGSWFWAENQTYMDCRAETSCDTMQGAEEEEPIIGSWFWTRVEACVEGDVNSKSSLEDKEEAMIPCFGAKEEVSMKHGTGVRCRFMAGAEETNNKSCFWAEKEPCMYPAGGGSWKSRPEEEEDIVNSWFWSRKYTKPEAIIGSWLWATEESNIDGTGEKAKLLTEEETIINSWFWKEDEAISEATDREESRPEAEEGDIIGSWFWAGEEDRLEPAAETREEDRLAAEKEGIVGSWFGAREETIRREAGSCSKSSPKAEEEEVIIGSWFWEEEASPEAVAGVGFESKPGTEEEEITVGSWFWPEEEASIQAGSQAVEEMESETEEETIFGSWFWDGKEVSEEAGPCCVSKPEDDEEMIVESWFWSRDKAIKETGTVATCESKPENEEGAIVGSWFEAEDEVDNRTDNGSNCGSRTLADEDEAIVGSWFWAGDEAHFESNPSPVFRAICRSTCSVEQEPDPSRRPQSWEEVTVQFKPGPWGRVGFPSISPFRFPKE

The chains behind the UniProt entries cited, without tags or fusion partners. Where a name states a change or a piece, a line headed by the entry shows the natural chain unless it says otherwise.
UniProt P30988: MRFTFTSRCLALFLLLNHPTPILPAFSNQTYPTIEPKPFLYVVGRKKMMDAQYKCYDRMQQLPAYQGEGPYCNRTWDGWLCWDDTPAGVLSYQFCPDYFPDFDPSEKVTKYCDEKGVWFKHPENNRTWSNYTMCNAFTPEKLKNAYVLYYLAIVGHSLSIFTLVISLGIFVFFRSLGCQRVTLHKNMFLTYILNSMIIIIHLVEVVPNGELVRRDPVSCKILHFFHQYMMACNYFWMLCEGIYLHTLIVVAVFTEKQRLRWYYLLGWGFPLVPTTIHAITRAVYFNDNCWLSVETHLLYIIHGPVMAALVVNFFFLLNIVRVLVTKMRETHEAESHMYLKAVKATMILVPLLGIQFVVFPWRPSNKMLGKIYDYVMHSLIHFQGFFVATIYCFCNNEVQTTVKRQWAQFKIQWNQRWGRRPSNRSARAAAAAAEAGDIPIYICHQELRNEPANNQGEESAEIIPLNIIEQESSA

Assays:
[1] = target: GST-fused C-tail of the muscarinic M1 acetylcholine receptor (residues 414–460); test: pull-down; GST-fused receptor C-tails immobilized on glutathione-Sepharose beads, incubated with [35S]-labelled in vitro translated GASPs 1 h at 4°C; 20 mM Tris-HCl pH 7.4, 150 mM NaCl, 1 mM EDTA, 1 mM DTT, 10% glycerol, 1% Triton X-100; Phosphor-imager quantification; only the target purified
[2] = target: GST-fused C-tail of the δ-opioid receptor (residues 314–372); test: as above
[3] = target: GST-fused C-tail of the β1 adrenergic receptor (residues 373–477); test: as above
[4] = target: N-terminal GFP-tagged CALCR (UniProt P30988); test: co-IP; lysates of HEK293 cells stably expressing GFP-tagged receptors or MyrPalm-mYFP and transfected with the central domain of GASP-1; anti-GFP antibody and protein A-Sepharose; blot with anti-GASP serum; 0.3% Triton X-100

Row | Binder | binding [1] | binding [2] | binding [3] | binding [4]
1 | B1 | binds | binds | binds | –
2 | B2 | – | – | – | binds

— paper PMC3575409, “Identification of a Novel Protein-Protein Interaction Motif Mediating Interaction of GPCR-Associated Sorting Proteins with G Protein-Coupled Receptors” (PLoS ONE, 2013)
